Values of other authors in patent publication US9173976B2, “Compositions and methods for the treatment of bone voids and open fractures” (POLYPID LTD., priority 2012, dated 2015).
For at least one compound, name, drawing or mass did not settle the structure.

Tested on: S. aureus
Conditions: for S. aureus; cited from earlier work

C[C@H]1c2cccc(O)c2C(=O)C2=C(O)[C@]3(O)C(=O)C(C(N)=O)=C(O)[C@@H](N(C)C)[C@@H]3[C@@H](O)[C@@H]21 [free Doxycycline, Doxycycline]
minimal inhibitory concentration (MIC): ≥ 0.1 µg/mL
